Test results from patent publication US20220144930A1.
These are yes or no findings as the source states them, for the method shown. A result given as binding can be weak or reduced; the word gives no strength. Values belong to the binder of their own block, whether it stands above or below them.

Legend:
[1] = molecular target: recombinant human VEGF165 protein (human); assay: phage display library screening (scFv clones)
[2] = molecular target: recombinant human VEGF165 protein (human); assay: phage ELISA of single scFv clones on coated VEGF165
[3] = molecular target: recombinant human VEGF165 protein (human); assay: ELISA (legend of FIG. 3)
[4] = molecular target: recombinant human VEGF165 protein (human); assay: ELISA (legend of FIG. 4)
[5] = molecular target: recombinant human VEGF165 protein (human); assay: summary of the ELISA results
[6] = molecular target: recombinant human VEGF165 protein (human); assay: ELISA, protein coated at 0.1, 1 and 10 µg/mL, antibody 1 µg/mL

B1: rabbit antibody VEGF-R613 (antibody, rabbit IgG1)
scFv: ELVMTQTPSPVSAAVGGTVTINCQSSQSVYSNNRLAWYQQKPGQPPKLLIYGASTLASGVPSRFKGSGSGTQFTLTISDVQCDDAATYYCAGYKSYDGDDVGFGGGTEVVVKSSGGGGSGGGGGGSSRSSQSVEESGGRLVTPGTPLTLTCTVSGIDLSSYAISWVRQAPGKGLEYIGYIWSTDNTYYASWAKGRFTISEASTTVDLKITSPTTEDTATYFCARGTLGDYNGMDPWGPGTLVTVSS
binding [1]: binds | binding [2]: binds

B4: rabbit antibody VEGF-R859 (antibody, rabbit IgG1)
scFv: DVVMTQTAASVSEPVGGTVTIKCQASQSIRSWLSWYQQKPGQPPKLLIYQASKLASGVPSRFKGSGYGTEFTLTISDLECADAATYYCQNNYSFSKDGGAFGGGTEVVVKSSGGGGSGGGGGGSSRSSQSVEESGGRLVTPGTPLTLTCQVSGFSLNIYDMTWVRQAPGKGLEWIGIIAPDDSAYYANWAKGRFTISKTSTTVDLKMTSPTTEDTATYFCARNAYSSGWGGDLWGPGTLVTVSS
binding [1]: binds | binding [2]: binds

B5: rabbit antibody VEGF-R812 (antibody, rabbit IgG1)
scFv: ELVLTQTPASVEAAVGGTVTIKCQASQSINSWLSWYQQKPGQRPKLLIYQASKLASGVPSRFKGSGSGTEYTLTISDLECADAATYYCQNNLGGGDGSYGLPFGGGTEVVVKSSGGGGSGGGGGGSSRSSQSLEESGGRLVTPGGSLTLTCTASGFDLGIYEITWVRQAPGKGLEWIGVIYGDGDTVYANWAKGRFTISKTSTTVDLKISSPTTEDTATYFCARNGYTTGWGGDLWGPGTLVTVSS
binding [1]: binds | binding [2]: binds

Other lines, results leading:

binding [1]: binds | binding [2]: binds
B2: rabbit antibody VEGF-R988 (antibody, rabbit IgG1, V domains shown)
VH: QSVEESGGRLVTPGTPLTLTCTVSGIDLSSYAISWVRQAPGKGLEYIGYIWNAGNTYYASWAKGRFTISKTSTTVDLKITSPTTEDTATYFCARGTLGDYNGMDPWGPGTLVTVSS
VL: ELDLTQTPSPVSAAVGGTVTINCQSSQTIYANRRLAWYQQKPGQPPKLLIYGASTLASGVPSRFKGSGSGTQFTLTISGVQCDDAATYYCAGYKSYDGDDVGFGGGTEVVVK

binding [3]: binds | binding [4]: binds | binding [5]: binds | binding [6]: binds
B3: humanized antibody VEGF-H988 (antibody, human IgG1, kappa, V domains shown)
VH: QSVQESGPGLVKPSETLSLTCTVSGIDLSSYAISWVRQPPGKGLEYIGYIWNDLFTYYASWAKGRVTISVDTSKNQVDLKLSSVTAADTAVYFCARGTLGDYGGMDPWGQGTLVTVSS
VL: ELQLTQSPSSLSASVGDRVTITCQSSKFLWQGRRLAWYQQKPGKVPKLLIYGASTLASGVPSRFKGSGSGTDFTLTISSLQPEDVATYYCAGYKSYDGDVVGFGGGTKVEIKR
